Experiment in all cases: log2 fold change, soluble protein after heating vs DMSO (PISA); higher = thermal stabilisation; K562 cells, 10 uM, 30 min; active = over 0.2 and 3.5 SD of the protein, either way, in both replicates (recomputed)
Compound in assay [1]: CS(=O)(=O)c1ccc(-c2cnc(N)c(C(=O)Nc3ccccc3)n2)cc1
Summed up: (§1)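 K562 cells at 2×10^6 cells/mL were treated for 30 min with 10 μM compound, and aliquots were heated for 3 min over 48°C-58°C before pooling. Extraction used PBS with 0.5% NP-40 at 4°C, and soluble protein was the supernatant after 21,000xg for 90 min, measured by TMTpro 16plex LC-MS/MS with channel sums equalised. Thermal stability values, relative to control samples and from duplicates, are log2 fold changes.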

The chains behind the UniProt entries cited, without tags or fusion partners. Where a name states a change or a piece, a line headed by the entry shows the natural chain unless it says otherwise.
UniProt Q9UJY4: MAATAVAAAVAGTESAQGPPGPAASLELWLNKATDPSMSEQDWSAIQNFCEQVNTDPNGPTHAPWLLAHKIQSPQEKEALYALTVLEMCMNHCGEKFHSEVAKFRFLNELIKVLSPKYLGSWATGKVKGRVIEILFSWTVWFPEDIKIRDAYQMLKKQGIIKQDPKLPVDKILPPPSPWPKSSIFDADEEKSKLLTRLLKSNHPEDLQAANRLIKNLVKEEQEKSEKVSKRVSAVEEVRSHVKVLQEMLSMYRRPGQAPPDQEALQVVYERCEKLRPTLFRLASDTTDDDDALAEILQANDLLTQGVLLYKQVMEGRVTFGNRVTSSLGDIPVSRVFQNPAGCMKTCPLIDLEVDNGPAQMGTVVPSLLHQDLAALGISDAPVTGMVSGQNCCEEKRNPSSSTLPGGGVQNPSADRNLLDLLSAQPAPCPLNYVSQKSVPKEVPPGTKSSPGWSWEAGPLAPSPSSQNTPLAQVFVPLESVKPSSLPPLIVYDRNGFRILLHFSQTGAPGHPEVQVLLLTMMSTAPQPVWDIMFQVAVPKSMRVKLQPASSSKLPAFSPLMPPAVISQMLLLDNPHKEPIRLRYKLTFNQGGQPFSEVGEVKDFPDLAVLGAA
UniProt O14976: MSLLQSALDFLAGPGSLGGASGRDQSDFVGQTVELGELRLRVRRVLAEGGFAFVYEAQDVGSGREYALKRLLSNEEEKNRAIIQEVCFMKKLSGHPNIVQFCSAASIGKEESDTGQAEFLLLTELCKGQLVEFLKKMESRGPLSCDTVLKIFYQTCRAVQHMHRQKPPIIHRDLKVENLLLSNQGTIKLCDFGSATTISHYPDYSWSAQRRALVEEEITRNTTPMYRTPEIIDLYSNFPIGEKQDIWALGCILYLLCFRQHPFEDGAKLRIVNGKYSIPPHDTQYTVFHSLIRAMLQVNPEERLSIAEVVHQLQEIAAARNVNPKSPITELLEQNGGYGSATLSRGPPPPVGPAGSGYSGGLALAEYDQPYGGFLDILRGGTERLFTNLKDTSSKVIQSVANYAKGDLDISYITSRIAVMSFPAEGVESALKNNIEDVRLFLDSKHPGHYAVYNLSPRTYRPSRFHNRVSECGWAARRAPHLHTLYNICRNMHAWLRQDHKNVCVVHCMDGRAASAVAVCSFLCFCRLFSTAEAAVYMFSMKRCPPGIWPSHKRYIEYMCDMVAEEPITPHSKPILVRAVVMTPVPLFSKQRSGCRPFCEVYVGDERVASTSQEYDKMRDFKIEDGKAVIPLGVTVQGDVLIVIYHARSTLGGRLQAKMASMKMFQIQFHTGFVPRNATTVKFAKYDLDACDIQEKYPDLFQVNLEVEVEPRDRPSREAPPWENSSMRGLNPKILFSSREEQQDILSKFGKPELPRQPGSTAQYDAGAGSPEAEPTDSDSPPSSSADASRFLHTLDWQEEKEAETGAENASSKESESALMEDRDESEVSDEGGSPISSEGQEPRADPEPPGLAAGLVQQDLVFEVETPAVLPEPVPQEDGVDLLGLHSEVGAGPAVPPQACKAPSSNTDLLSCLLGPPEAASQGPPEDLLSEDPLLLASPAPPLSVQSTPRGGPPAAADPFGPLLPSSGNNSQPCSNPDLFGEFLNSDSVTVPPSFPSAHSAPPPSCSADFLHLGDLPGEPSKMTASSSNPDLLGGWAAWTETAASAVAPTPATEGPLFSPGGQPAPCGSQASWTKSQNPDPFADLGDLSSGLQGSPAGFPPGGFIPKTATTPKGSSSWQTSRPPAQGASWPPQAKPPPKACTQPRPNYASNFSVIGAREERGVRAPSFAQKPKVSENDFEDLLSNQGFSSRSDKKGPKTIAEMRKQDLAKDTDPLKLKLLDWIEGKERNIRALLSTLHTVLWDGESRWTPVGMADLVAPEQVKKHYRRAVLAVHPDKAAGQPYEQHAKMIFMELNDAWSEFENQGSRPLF
UniProt P23769: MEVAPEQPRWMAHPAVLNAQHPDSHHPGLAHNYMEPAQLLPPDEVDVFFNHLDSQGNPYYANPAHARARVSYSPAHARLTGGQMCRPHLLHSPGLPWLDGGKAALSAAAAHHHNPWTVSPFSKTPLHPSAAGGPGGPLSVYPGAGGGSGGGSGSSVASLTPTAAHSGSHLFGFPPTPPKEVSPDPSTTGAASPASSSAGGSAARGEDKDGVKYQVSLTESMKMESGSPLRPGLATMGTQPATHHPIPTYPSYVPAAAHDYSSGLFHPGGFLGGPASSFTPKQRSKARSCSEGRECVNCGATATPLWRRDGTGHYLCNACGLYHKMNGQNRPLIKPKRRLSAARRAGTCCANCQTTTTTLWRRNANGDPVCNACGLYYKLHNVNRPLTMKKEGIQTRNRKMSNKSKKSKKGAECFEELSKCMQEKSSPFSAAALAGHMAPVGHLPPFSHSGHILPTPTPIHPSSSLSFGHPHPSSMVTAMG
UniProt Q8IWF2: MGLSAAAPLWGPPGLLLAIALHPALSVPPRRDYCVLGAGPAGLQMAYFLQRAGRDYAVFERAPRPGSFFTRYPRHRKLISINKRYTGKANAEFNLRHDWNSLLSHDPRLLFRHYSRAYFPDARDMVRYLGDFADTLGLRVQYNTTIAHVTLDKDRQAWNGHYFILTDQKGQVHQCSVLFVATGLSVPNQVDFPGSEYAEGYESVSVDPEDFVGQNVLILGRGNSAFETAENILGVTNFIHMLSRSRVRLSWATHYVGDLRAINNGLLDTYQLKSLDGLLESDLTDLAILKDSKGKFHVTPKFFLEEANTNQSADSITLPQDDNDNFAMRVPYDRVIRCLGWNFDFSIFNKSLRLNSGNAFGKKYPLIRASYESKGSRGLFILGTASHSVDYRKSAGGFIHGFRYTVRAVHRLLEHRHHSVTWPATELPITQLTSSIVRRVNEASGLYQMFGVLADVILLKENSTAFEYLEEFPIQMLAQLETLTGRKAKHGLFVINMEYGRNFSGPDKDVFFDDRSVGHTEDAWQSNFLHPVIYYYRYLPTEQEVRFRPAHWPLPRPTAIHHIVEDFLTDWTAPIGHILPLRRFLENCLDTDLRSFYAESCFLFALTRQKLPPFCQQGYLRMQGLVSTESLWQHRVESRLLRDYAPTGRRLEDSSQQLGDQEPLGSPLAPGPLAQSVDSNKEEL
UniProt Q8IVP5: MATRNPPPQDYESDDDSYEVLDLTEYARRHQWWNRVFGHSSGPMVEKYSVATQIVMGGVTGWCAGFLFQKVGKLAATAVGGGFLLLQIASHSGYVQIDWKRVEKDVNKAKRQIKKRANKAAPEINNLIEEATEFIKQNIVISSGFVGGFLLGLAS
UniProt Q8NCL4: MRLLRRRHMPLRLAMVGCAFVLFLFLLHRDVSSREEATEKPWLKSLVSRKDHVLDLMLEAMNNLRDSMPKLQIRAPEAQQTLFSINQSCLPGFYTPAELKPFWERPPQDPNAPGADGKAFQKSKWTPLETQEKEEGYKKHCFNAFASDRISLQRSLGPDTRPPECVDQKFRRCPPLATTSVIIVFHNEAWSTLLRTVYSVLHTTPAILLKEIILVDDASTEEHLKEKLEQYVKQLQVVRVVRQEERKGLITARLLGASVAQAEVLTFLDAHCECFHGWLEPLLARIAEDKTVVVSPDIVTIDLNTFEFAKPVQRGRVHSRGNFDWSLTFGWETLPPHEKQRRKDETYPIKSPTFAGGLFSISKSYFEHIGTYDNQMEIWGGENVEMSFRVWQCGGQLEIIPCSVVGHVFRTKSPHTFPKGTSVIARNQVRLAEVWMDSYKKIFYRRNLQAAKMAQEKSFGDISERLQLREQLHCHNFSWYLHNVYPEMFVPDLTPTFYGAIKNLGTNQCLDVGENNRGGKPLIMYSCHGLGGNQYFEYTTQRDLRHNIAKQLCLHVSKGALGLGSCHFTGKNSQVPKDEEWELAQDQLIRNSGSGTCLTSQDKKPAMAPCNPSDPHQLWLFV
UniProt O43524: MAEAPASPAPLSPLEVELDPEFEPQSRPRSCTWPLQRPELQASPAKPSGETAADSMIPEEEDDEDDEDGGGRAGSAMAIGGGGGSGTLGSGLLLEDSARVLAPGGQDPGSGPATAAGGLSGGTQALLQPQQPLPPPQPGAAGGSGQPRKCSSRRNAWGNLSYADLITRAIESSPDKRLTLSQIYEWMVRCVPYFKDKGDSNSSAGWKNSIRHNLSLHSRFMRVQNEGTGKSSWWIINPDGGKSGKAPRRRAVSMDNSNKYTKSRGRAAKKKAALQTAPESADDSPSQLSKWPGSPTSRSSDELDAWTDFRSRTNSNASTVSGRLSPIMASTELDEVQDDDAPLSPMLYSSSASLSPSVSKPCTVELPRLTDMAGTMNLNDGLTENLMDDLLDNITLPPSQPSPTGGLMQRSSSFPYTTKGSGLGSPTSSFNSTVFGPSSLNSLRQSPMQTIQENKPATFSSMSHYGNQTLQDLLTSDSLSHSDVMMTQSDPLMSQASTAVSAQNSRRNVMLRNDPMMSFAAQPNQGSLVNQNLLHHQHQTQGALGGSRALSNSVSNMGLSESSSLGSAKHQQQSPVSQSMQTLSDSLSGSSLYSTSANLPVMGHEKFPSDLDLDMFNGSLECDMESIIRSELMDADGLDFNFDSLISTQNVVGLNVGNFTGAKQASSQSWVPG
UniProt Q9NZC3: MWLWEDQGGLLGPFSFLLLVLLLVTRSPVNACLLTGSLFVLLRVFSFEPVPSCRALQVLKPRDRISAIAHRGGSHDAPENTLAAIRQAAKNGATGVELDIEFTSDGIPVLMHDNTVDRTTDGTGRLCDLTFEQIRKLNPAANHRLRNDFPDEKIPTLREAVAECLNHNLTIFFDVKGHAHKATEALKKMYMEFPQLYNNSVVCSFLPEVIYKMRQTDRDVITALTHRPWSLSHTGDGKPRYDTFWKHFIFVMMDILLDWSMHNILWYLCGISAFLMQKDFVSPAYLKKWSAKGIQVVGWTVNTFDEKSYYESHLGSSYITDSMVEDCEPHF
UniProt Q8WXI9: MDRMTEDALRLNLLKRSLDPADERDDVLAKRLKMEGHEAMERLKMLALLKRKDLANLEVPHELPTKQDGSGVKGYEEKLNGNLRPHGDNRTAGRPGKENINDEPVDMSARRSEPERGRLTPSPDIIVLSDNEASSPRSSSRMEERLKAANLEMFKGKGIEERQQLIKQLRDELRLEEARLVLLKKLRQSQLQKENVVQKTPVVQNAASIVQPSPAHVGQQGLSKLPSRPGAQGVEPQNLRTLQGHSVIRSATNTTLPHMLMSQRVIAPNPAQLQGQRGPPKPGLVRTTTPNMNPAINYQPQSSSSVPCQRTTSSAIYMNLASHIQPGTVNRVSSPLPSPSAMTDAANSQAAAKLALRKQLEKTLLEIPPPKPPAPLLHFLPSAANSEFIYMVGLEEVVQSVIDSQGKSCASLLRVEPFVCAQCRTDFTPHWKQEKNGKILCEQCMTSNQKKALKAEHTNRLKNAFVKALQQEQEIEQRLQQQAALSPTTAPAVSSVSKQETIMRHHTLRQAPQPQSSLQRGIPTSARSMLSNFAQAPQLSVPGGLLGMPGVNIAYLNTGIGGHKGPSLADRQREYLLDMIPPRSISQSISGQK

Compound in assay [2]: C[C@@H](Oc1cc(-c2cnn(C3CCNCC3)c2)cnc1N)c1c(Cl)ccc(F)c1Cl [crizotinib]
Summed up:
as §1

Compound in assay [3]: C[C@@H]1COCCN1C2=NC(=NC(=C2)C3(CC3)S(=O)(=O)C)C4=C5C=CNC5=CC=C4
Summed up: as §1

Compound in assay [4]: Cc1cc(Nc2cc(CN3CCOCC3)c3nc(C)c(Cc4ccc(Cl)cc4F)n3n2)n[nH]1 [gandotinib]
Summed up:
as §1

Compound in assay [5]: Cc1cc(Nc2cc(N3CCN(C)CC3)nc(Sc3ccc(NC(=O)C4CC4)cc3)n2)n[nH]1 [tozasertib]
Summed up: as §1

Compound in assay [6]: Cc1ccc(-n2nc(C(C)(C)C)cc2NC(=O)Nc2ccc(OCCN3CCOCC3)c3ccccc23)cc1 [doramapimod]
Summed up:
as §1

Compound in assay [7]: Cc1cccc(CC(=O)N2CCc3c2ccc(-c2cn(C)c4ncnc(N)c24)c3F)n1
Summed up:
as §1

Compound in assay [8]: FC(F)(F)c1ccc(/C=C/c2nc(COc3ccc(CCCCn4ccnn4)cc3)co2)cc1 [mubritinib]
Summed up: as §1

Compound in assay [9]: C[C@H](C1=CC=C(C=C1)C(=O)NC2=C3C=CNC3=NC=C2)N
Summed up: as §1

Compound in assay [10]: Cc1cc(SCc2sc(-c3ccc(C(F)(F)F)cc3)nc2C)ccc1OCC(=O)O
Summed up:
as §1

Compound in assay [11]: Cc1ccc(C(=O)N(CCCN)[C@@H](c2nc3cc(Cl)ccc3c(=O)n2Cc2ccccc2)C(C)C)cc1 [ispinesib]
Summed up:
as §1

Compound in assay [12]: Cc1ccc(NC(=O)c2ccc(CN3CC[C@H](N(C)C)C3)c(C(F)(F)F)c2)cc1Nc1nccc(-c2cncnc2)n1 [bafetinib]
Summed up: as §1

Compound in assay [13]: Cc1cn(-c2cc(NC(=O)c3ccc(C)c(Nc4nccc(-c5cccnc5)n4)c3)cc(C(F)(F)F)c2)cn1 [nilotinib]
Summed up:
as §1

Compound in assay [14]: Cc1nc(Nc2n[nH]c3c2CN(C(=O)N[C@H](CN(C)C)c2ccccc2)C3(C)C)c2sccc2n1
Summed up: as §1

Compound in assay [15]: Cc1nc(Nc2ncc(C(=O)Nc3c(C)cccc3Cl)s2)cc(N2CCN(CCO)CC2)n1 [dasatinib]
Summed up: as §1

Compound in assay [16]: Cc1ncc(-c2ccnc(Nc3ccc(S(C)(=O)=O)cc3)n2)n1C(C)C
Summed up:
as §1

Compound in assay [17]: Cn1cc(-c2ccc3c(c2)CCN3C(=O)Cc2cccc(C(F)(F)F)c2)c2c(N)ncnc21
Summed up: as §1

Compound in assay [18]: Cn1cc(-c2ccc3nnc(C(F)(F)c4ccc5ncccc5c4)n3n2)cn1
Summed up:
as §1

Compound in assay [19]: Cn1cncc1[C@@](N)(c1ccc(Cl)cc1)c1ccc2c(c1)c(-c1cccc(Cl)c1)cc(=O)n2C [tipifarnib]
Summed up: as §1

Compound in assay [20]: C[C@H](Nc1ncnc2nc[nH]c12)c1cc2cccc(Cl)c2c(=O)n1-c1ccccc1 [duvelisib]
Summed up:
as §1

The list shows a part of the results.

Regarding GAA (UniProt P10253), the log2 fold change in assay [1] was inactive: -0.081; in [2] it was inactive: 0.083; in assay [3], inactive: -0.068; in assay [4], inactive: 0.101; in assay [5] it was inactive: -0.071; in assay [6] it was inactive: -0.188. The log2 fold change in assay [7] is inactive: -0.072; in assay [8], inactive: -0.021.
As to GGA2 (UniProt Q9UJY4), the log2 fold change in assay [1] was inactive: 0.038; in assay [2], inactive: -0.089; in assay [3] it was inactive: 0.032; in [9], inactive: 0.036; in assay [10], inactive: 0.015; in assay [6], inactive: 0.009. The log2 fold change in assay [11] is inactive: -0.177; in assay [12] it was inactive: 0.024; in [13] it was inactive: -0.031; in assay [14], inactive: 0.065; in assay [15], inactive: 0.075; in [16], inactive: -0.013. Besides, the log2 fold change in assay [17] is inactive: 0.024; in [18] it was inactive: 0.034; in assay [19], inactive: -0.003; in assay [8] it was inactive: 0.014.
In the case of GAK (UniProt O14976), the log2 fold change in assay [1] is inactive: 0.49; in [2] it was inactive: 0.115; in assay [3] it was inactive: -0.081; in [9], inactive: 1.26; in assay [4] it was inactive: 0.02; in [10] it was inactive: -0.121. For the same target, the log2 fold change is inactive: 0.206 in assay [6]; inactive: -0.157 in assay [11]; inactive: -0.072 in [7]; inactive: 0.257 in assay [13]; inactive: 0.792 in [14]; inactive: 1.31 in [15]. The log2 fold change in assay [16] was inactive: 0.232; in [17] it was inactive: -0.07; in assay [18], inactive: -0.031; in assay [19], inactive: -0.238; in assay [8], inactive: 0.005.
Take GATA2 (UniProt P23769): the log2 fold change is inactive: 0.115 in assay [1]; inactive: -0.16 in assay [9]; inactive: -0.12 in assay [20]; inactive: 0.088 in assay [4]; inactive: -0.161 in assay [10]; inactive: -0.068 in [11]. Also, the log2 fold change in assay [12] is inactive: -0.011; in assay [7], inactive: 0.089; in [13] it was inactive: 0.057; in [14], inactive: -0.075; in assay [15], inactive: 0.087; in assay [16], inactive: 0.057. The log2 fold change in [17] was inactive: -0.138; in assay [18], inactive: -0.014; in assay [19], inactive: -0.026; in assay [8], inactive: -0.065.
In the case of FOXRED2 (UniProt Q8IWF2), the log2 fold change is inactive: -0.092 in [2]; inactive: -0.045 in assay [3]; inactive: 0.112 in assay [9]; inactive: -0.013 in [20]; inactive: -0.026 in assay [5]; inactive: 0.056 in assay [10]. The log2 fold change in [6] is inactive: 0.128; in assay [11], inactive: 0.066; in assay [15], inactive: 0.014; in assay [17], inactive: -0.078; in assay [18] it was inactive: -0.059; in [19], inactive: 0.006. Further, the log2 fold change in [8] is inactive: -0.249.
For FUNDC1 (UniProt Q8IVP5), the log2 fold change in [1] was inactive: 0.046; in [12] it was inactive: -0.169; in assay [19] it was inactive: 0; in assay [8], inactive: 0.066.
For the target GALNT6 (UniProt Q8NCL4), the log2 fold change is inactive: 0.045 in [1]; inactive: -0.171 in assay [2]; inactive: -0.011 in [3]; inactive: 0.019 in assay [20]; inactive: 0.013 in [5]; inactive: -0.105 in assay [10]. Also, the log2 fold change is inactive: 0 in assay [6]; inactive: -0.03 in assay [11]; inactive: -0.043 in [12]; inactive: 0.009 in assay [13]; inactive: -0.019 in assay [14]; inactive: -0.112 in assay [15]. The log2 fold change in [16] is inactive: 0.073; in [18], inactive: -0.075; in assay [19], inactive: 0.095; in [8], inactive: 0.154.
For FOXO3 (UniProt O43524), the log2 fold change in [1] was inactive: -0.028; in [2] it was active: -0.423; in [3], inactive: -0.444; in assay [9], inactive: 0.013; in [4], inactive: -0.061; in assay [10], inactive: 0.16. For the same target, the log2 fold change was inactive: 0.005 in assay [6]; inactive: -0.095 in assay [11]; inactive: 0.002 in assay [7]; inactive: -0.14 in assay [15]; inactive: 0 in assay [17]; inactive: -0.013 in assay [18]. Besides, the values for the log2 fold change in assay [19] and in [8] were inactive: -0.139 and inactive: -0.057, respectively.
On to GDE1 (UniProt Q9NZC3), for which the log2 fold change was inactive: 0.033 in assay [1]; inactive: 0.063 in [2]; inactive: 0.077 in assay [3]; inactive: -0.087 in [9]; inactive: -0.067 in assay [10]; inactive: 0.074 in assay [6]. Further, the log2 fold change in [11] was inactive: 0.051; in [12], inactive: 0.081; in assay [13], inactive: 0.03; in assay [14], inactive: 0.054; in assay [15], inactive: 0.028; in assay [16] it was inactive: -0.032. Also, the log2 fold change in assay [17] was inactive: 0.106; in [18], inactive: -0.029; in assay [19], inactive: -0.001; in assay [8] it was inactive: 0.01.
For GATAD2B (UniProt Q8WXI9), the log2 fold change in assay [1] is inactive: -0.102; in assay [2], inactive: -0.161; in assay [3], inactive: -0.021; in assay [5], inactive: 0.125; in [6] it was inactive: 0.152; in assay [11], inactive: -0.122. Also, the log2 fold change in [18] is inactive: 0.088; in [19], inactive: 0.023; in [8], inactive: 0.047.

Source of the values: the supplement of paper PMC10849652.
